Assay results as given in the supplement of paper PMC8166895.
Counter-ions that a name gives are not always drawn. This is one part of the list. Most values lie at the level of the controls, where differences are scatter.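 A single-replicate pilot screen of approved drugs and clinical or known-target compounds measured melting temperature via differential scanning fluorimetry. Top stabilizing hits raised the melting point by 2 °C or more; negative shifts indicate destabilization.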

These compounds were tested on SARS-CoV-2 main protease (Mpro, nsp5) (assay: thermal shift ΔTm of Mpro relative to plate average Tm; higher = stronger thermal stabilization of Mpro (binding)). Settings: 10 µM; protein concentration 1 µM.

SMILES	thermal shift ΔTm of Mpro [°C]
O=C(O)c1cc(-c2ccc(F)cc2F)ccc1O [Diflunisal]	-0.279
CCOC(=O)COc1ccc(/C=C2/SC(=S)NC2=O)cc1OC	-0.0346
O=C(Nc1c(Cl)cncc1Cl)c1ccc(OC(F)F)c(OCC2CC2)c1 [Roflumilast]	-0.0915
CCOC(=O)OC(C)OC1=C(C(=O)Nc2ccccn2)N(C)S(=O)(=O)c2ccccc21 (configuration not stated) [Ampiroxicam]	0.113
Cc1cccc(-c2[nH]c(CNc3ccccc3F)nc2-c2ccc3ncnn3c2)n1	0.0583
CC(=O)[C@H]1CC[C@H]2[C@@H]3C[C@H](C)C4=CC(=O)CC[C@]4(C)[C@H]3[C@@H](O)C[C@]12C [Medrysone]	-0.146
C=CC(=O)N1CC/C(=C\c2ccc(F)c([N+](=O)[O-])c2)C(=O)/C(=C/c2ccc(F)c([N+](=O)[O-])c2)C1	-0.0818
CCCS(=O)(=O)Nc1ccc(F)c(C(=O)c2c[nH]c3ncc(-c4ccc(Cl)cc4)cc23)c1F [Vemurafenib (PLX4032, RG7204)]	0.465
CCOc1ccccc1OCCN[C@H](C)Cc1ccc(OC)c(S(N)(=O)=O)c1 [Tamsulosin hydrochloride]	0.162
O=S(=O)(O)CCS [Mesna]	-0.11
CN(C)C1CCN(C(=O)c2ccc(NC(=O)Nc3ccc(-c4nc(N5CCOCC5)nc(N5CCOCC5)n4)cc3)cc2)CC1 [Gedatolisib]	0.151
Nc1nc(=O)c2c([nH]1)NC[C@@H](CNc1ccc(C(=O)N[C@@H](CCC(=O)O)C(=O)O)cc1)N2C=O [Folinic Acid Calcium Salt Pentahydrate]	0.169
COc1ccc2cc([C@@H](C)C(=O)O)ccc2c1 [(R)-Naproxen]	0.1
CC(C)NCC(O)COc1cccc2ccccc12 (configuration not stated) [Propranolol HCl]	0.19
COc1ccc(C2C(C#N)=C(N)OC3=C2C(=O)CC(c2cccc4ccccc24)C3)cc1 (configuration not stated)	-0.0995
NC(=S)c1ccncc1 [Thioisonicotinamide]	0.211
Cc1nc(NC(=O)N2CCC[C@H]2C(N)=O)sc1-c1ccnc(C(C)(C)C(F)(F)F)c1	-0.146
CCCCc1nc(C)c(CC(=S)N(C)C)c(=O)n1Cc1ccc(-c2ccccc2-c2nnn[nH]2)cc1 [Fimasartan]	0.0719
Cc1cc(C)c(NC(=O)C2CC3CCC2C3)c(C)c1 (configuration not stated)	-0.0435
Cc1[nH]c(/C=C2\C(=O)Nc3ccc(S(=O)(=O)N(C)c4cccc(Cl)c4)cc32)c(C)c1C(=O)N1CCN(C)CC1	0.185
CCCCCCc1ccc(O)cc1O [Hexylresorcinol]	-0.00795
CN(C)Cc1ccc(-c2nc3cccc4c3n2CCNC4=O)cc1	-0.137
O=C(/C=C\n1cnc(-c2cc(C(F)(F)F)cc(C(F)(F)F)c2)n1)NNc1cnccn1	0.196
CN(C)CCSSCCNC(=O)C1CCN(C(=O)CSc2ccc(Cl)cc2)CC1	-0.429

14 entries from above, comma-delimited:
SMILES,thermal shift ΔTm of Mpro [°C]
CN(C)C1CCN(C(=O)c2ccc(NC(=O)Nc3ccc(-c4nc(N5CCOCC5)nc(N5CCOCC5)n4)cc3)cc2)CC1 [Gedatolisib],0.151
Nc1nc(=O)c2c([nH]1)NC[C@@H](CNc1ccc(C(=O)N[C@@H](CCC(=O)O)C(=O)O)cc1)N2C=O [Folinic Acid Calcium Salt Pentahydrate],0.169
COc1ccc2cc([C@@H](C)C(=O)O)ccc2c1 [(R)-Naproxen],0.1
CC(C)NCC(O)COc1cccc2ccccc12 (configuration not stated) [Propranolol HCl],0.19
COc1ccc(C2C(C#N)=C(N)OC3=C2C(=O)CC(c2cccc4ccccc24)C3)cc1 (configuration not stated),-0.0995
NC(=S)c1ccncc1 [Thioisonicotinamide],0.211
Cc1nc(NC(=O)N2CCC[C@H]2C(N)=O)sc1-c1ccnc(C(C)(C)C(F)(F)F)c1,-0.146
CCCCc1nc(C)c(CC(=S)N(C)C)c(=O)n1Cc1ccc(-c2ccccc2-c2nnn[nH]2)cc1 [Fimasartan],0.0719
Cc1cc(C)c(NC(=O)C2CC3CCC2C3)c(C)c1 (configuration not stated),-0.0435
Cc1[nH]c(/C=C2\C(=O)Nc3ccc(S(=O)(=O)N(C)c4cccc(Cl)c4)cc32)c(C)c1C(=O)N1CCN(C)CC1,0.185
CCCCCCc1ccc(O)cc1O [Hexylresorcinol],-0.00795
CN(C)Cc1ccc(-c2nc3cccc4c3n2CCNC4=O)cc1,-0.137
O=C(/C=C\n1cnc(-c2cc(C(F)(F)F)cc(C(F)(F)F)c2)n1)NNc1cnccn1,0.196
CN(C)CCSSCCNC(=O)C1CCN(C(=O)CSc2ccc(Cl)cc2)CC1,-0.429

(next part)

SMILES	thermal shift ΔTm of Mpro [°C]
COC(=O)[C@@H]1[C@H]2C[C@H]3c4[nH]c5ccccc5c4CCN3C[C@@H]2CC[C@@H]1O [Yohimbine HCl]	-0.0423
N#C[C@@H]1C[C@@H]2C[C@@H]2N1C(=O)[C@@H](N)C12CC3CC(CC(O)(C3)C1)C2 [Saxagliptin hydrate]	0.148
N#C[C@@H]1C[C@@H]2C[C@@H]2N1C(=O)[C@@H](N)C12CC3CC(CC(O)(C3)C1)C2 [Saxagliptin]	-0.179
CCS(=O)(=O)CCn1c([N+](=O)[O-])cnc1C [Tinidazole]	0.134
O=C1CCc2cc(OCCCCc3nnnn3C3CCCCC3)ccc2N1 [Cilostazol]	0.112
Oc1ccc(-c2nc3cc(O)cc(Br)c3o2)cc1	0.203
CCOC(=O)c1ccc(NC(=O)O[C@H]2[C@H](OC(=O)Nc3ccc4c(c3)OCO4)[C@@H](OC(=O)Nc3ccc4c(c3)OCO4)[C@@H](OC)O[C@@H]2CO)cc1	-0.117
CCNC(=O)C#Cc1ccc2c(C(=Nc3ccc(CN(C)C)cc3)c3ccccc3)c(O)[nH]c2c1	-0.237
CCCCOc1cc(C(=O)NCCN(CC)CC)c2ccccc2n1 [Dibucaine HCl]	-0.0402
CCCCOc1cc(C(=O)NCCN(CC)CC)c2ccccc2n1 [Dibucaine]	0.00139
CCC(C)SSc1ncc[nH]1 (configuration not stated)	-3.15
COc1cc(/C=C/c2ccccc2)oc(=O)c1 [Desmethoxy yangonin]	0.0449
Cc1coc2c1C(=O)C(=O)c1c-2ccc2c(C)cccc12 [Tanshinone I]	-0.106
C[C@@]12C[C@@]3(O)O[C@@H](O1)[C@]1(COC(=O)c4ccccc4)[C@H]3C[C@@]12O[C@@H]1O[C@H](CO)[C@@H](O)[C@H](O)[C@H]1O [Paeoniflorin]	-0.042
C[C@H]1CNCCc2ccc(Cl)cc21 [Lorcaserin HCl]	-0.136
Cc1ccccc1-n1c(Cn2nc(-c3cccc(O)c3)c3c(N)ncnc32)nc2cccc(C)c2c1=O	-0.124
COc1cc(Nc2nc3ccccc3nc2NS(=O)(=O)c2ccc(NC(=O)c3ccc(C)c(OC)c3)cc2)cc(OC)c1	1.03
CCC1=C(C)CN(C(=O)NCCc2ccc(S(=O)(=O)NC(=O)N[C@H]3CC[C@H](C)CC3)cc2)C1=O [Glimepiride]	0.348
CC(C)N1C(=O)N(c2ccccc2)CS/C1=N\C(C)(C)C [Buprofezin]	-0.12
Nc1ncnc2c1c(-c1cnc3[nH]ccc3c1)nn2C1CCCC1	-0.0425
CO[C@H]1[C@H](OC)[C@H]2O[C@H]3[C@@H](OC)[C@H](OC)[C@@H](O[C@H]4[C@@H](OC)[C@H](OC)[C@@H](O[C@H]5[C@@H](OC)[C@H](OC)[C@@H](O[C@H]6[C@@H](OC)[C@H](OC)[C@@H](O[C@H]7[C@@H](O)[C@H](OC)[C@@H](O[C@H]8[C@@H](O)[C@H](OC)[C@@H](O[C@@H]1[C@@H](CO)O2)O[C@@H]8CO)O[C@@H]7CO)O[C@@H]6CO)O[C@@H]5CO)O[C@@H]4CO)O[C@@H]3CO [Methyl-β-cyclodextrin]	0.363
Cc1cc(C(O)=C2C(=O)C(=O)N(CCCN3CCOCC3)C2c2ccncc2)ccc1OCc1ccccc1 (configuration not stated)	0.0141
COc1cc(OC)cc(-c2cc3cnc(N)nc3nc2NC(=O)NC(C)(C)C)c1	-0.106
